Values of other authors in patent US20240382498A1, “NOVEL INHIBITOR OF HYPE-MEDIATED AMPYLATION” (Purdue Research Foundation, priority 2023, published 2024).
At least one structure is not confirmed: it was looked up by name or label, or the drawing left a doubt.

System: HYPE
Details: pilot screen of nearly 10,000 compounds; cited from earlier work

In the case of `O=C(O)C1=CC(=C(c2ccc(O)c(C(=O)O)c2)c2ccc(O)c(C(=O)O)c2)C=CC1=O` [Compound I2, aurintricarboxylic acid], the “effect on HYPE-mediated AMPylation in vitro” value is listed as “inhibit”.
